Laboratory results: PubChem BioAssay AID624256 (NMMLSC, 2012)
This is one part of the list.

Test: HoxA9-arrested leukemia cell differentiation promoters – flow cytometry, MLPCN library, primary screen (AID 624256);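 also: cells exposed to compound for four days before flow analysis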
Details: ER-HoxA9 myeloid progenitors, lysozyme-GFP differentiation, measured here: differentiation confirmed by MAC1 staining, at 10 µM, stronger effect = higher value

Row | SMILES | GFP+ MAC1+ double positive [%]
1 | CCOC(=O)c1ccc(NP(C)(=O)Oc2ccc(F)cc2)cc1 (stereo unspecified) | 0.1
2 | O=P1(N(CCCl)CCCl)OCCC2CCCCN21 (stereo unspecified) | 0.8
3 | CCN(CC)CCCOC(=O)C(O)(c1ccccc1)C1CCCCC1 (stereo unspecified) | 0.9
4 | CCC(=O)N1C2C3N(C(=O)CC)C1C1N(C(=O)CC)C(C(N1C(=O)CC)N3C(=O)CC)N2C(=O)CC | 1.2
5 | O=C(OC1CN2CCC1CC2)c1ccccc1 (stereo unspecified) | 0.5
6 | CC(=O)NC(SC(=S)N(CC(C)C)CC(C)C)C(Cl)(Cl)Cl (stereo unspecified) | 0.2
7 | Cc1ccc(OP(=O)(Nc2ccccn2)Oc2ccc(C)cc2)cc1 | 0.2
8 | Cc1c([N+](=O)[O-])cc([N+](=O)[O-])c(Br)c1[N+](=O)[O-] | 0.7
9 | COC(=O)c1cc2c(s1)N=C(c1ccccc1)N(C)P2(=O)N1CCOCC1 (stereo unspecified) | 0.7
10 | O=[N+]([O-])c1cc([N+](=O)[O-])c(OC2CCCCC2O)c([N+](=O)[O-])c1 (stereo unspecified) | 0.8
11 | CCCCCOc1ccc(NP(C)(=O)Oc2ccc(Cl)cc2Cl)cc1 (stereo unspecified) | 1.4
12 | CN(C)C(=O)Oc1noc2ccccc12 | 0.5
13 | CC(NC(=O)COC(=O)C(O)(c1ccccc1)c1ccccc1)c1ccccc1 (stereo unspecified) | 0.7
14 | Cc1ccccc1OP(=O)(Nc1ccccn1)Oc1ccccc1C | 1
15 | CP(=O)(Nc1ccccc1)Oc1ccc(F)cc1 (stereo unspecified) | 11.6
16 | O=P(Nc1ccccn1)(c1ccc(Br)cc1)c1ccc(Br)cc1 | 0.4
17 | CN(C)C1(CNC(=O)c2ccc(Cl)c(S(N)(=O)=O)c2)CCCCC1 | 0.3
18 | COc1ccc(N)c([N+](=O)[O-])c1[N+](=O)[O-] | 1.2
19 | COc1ccc(OP(C)(=O)Nc2cccc(Br)c2)cc1 (stereo unspecified) | 0.2
20 | COc1ccc(NP(C)(=O)Oc2ccccc2OC)cc1 (stereo unspecified) | 0.7
21 | C[C@H]1OP(=O)(Oc2ccccc2)[C@H](O)[C@H](O)[C@H]1N=[N+]=[N-] (stereo partly specified) | 2.1

Row | SMILES | GFP+ MAC1+ double positive [%]
22 | CN(C)CCOC(=O)C(O)(c1ccccc1)C1CCCCC1 (stereo unspecified) | 0.9
23 | O=P(Nc1nc2ccccc2s1)(c1ccccc1)c1ccccc1 | 0.7
24 | Cc1cc(-c2cccc3ccccc23)c(C)cn1.O=[N+]([O-])c1cc([N+](=O)[O-])c(O)c([N+](=O)[O-])c1 | 0.6
25 | O=[As](O)(c1ccccc1)c1ccc(O)cc1 | 0.7
26 | O=[N+]([O-])c1ccc(O)c(/C=N/Nc2ccc([N+](=O)[O-])cc2[N+](=O)[O-])c1 | 0.1
27 | O=[N+]([O-])c1ccc(OP2(=O)COCCO2)cc1 (stereo unspecified) | 0.3
28 | CC(=O)NC(SC(=S)N(C)C)C(Cl)(Cl)Cl (stereo unspecified) | 0.3
29 | O=[N+]([O-])c1ncn(CCn2cnc([N+](=O)[O-])n2)n1 | 0.5
30 | O=C(OC1CN2CCC1CC2)c1cccc(Cl)c1 (stereo unspecified) | 0.4
31 | C(Cc1nn[nH]n1)Cc1nn[nH]n1 | 0.7
32 | Nc1ccc([As](=O)(O)c2ccc([N+](=O)[O-])cc2)cc1 | 0.8
33 | Cc1c(C(c2ccc3c(c2)OCO3)c2c(C)n(C)n(-c3ccccc3)c2=O)c(=O)n(-c2ccccc2)n1C.O=[N+]([O-])c1cc([N+](=O)[O-])c(O)c([N+](=O)[O-])c1 | 0.4
34 | CC(C)C(=O)NC(Sc1ccccc1)C(Cl)(Cl)Cl (stereo unspecified) | 0.4
35 | O=P(Nc1nccs1)(c1ccccc1)c1ccccc1 | 0.3
36 | CP(=O)(Nc1ccc(SC(F)(F)F)cc1)Oc1ccc(F)cc1 (stereo unspecified) | 0.4
37 | c1nnnn1CCn1cnnn1 | 1.4
38 | CCOP(C)(=S)SCC(=O)NC(C)(CC)C(=O)O (stereo unspecified) | 0.2
39 | CP(=O)(Nc1ccc2c(c1)OCCO2)Oc1ccccc1 (stereo unspecified) | 1
40 | O=[N+]([O-])c1cc([N+](=O)[O-])c(C(F)(F)F)c([N+](=O)[O-])c1O | 1
41 | Cc1ccccc1NP(C)(=O)Nc1ccccc1C | 0.1
